Assay results: patent publication US8263104B2, “Polymer nanofilm coatings” (Northwestern University, priority 2007, dated 2012)
Entries after “also recorded” stand apart in the source; their conditions may differ. At least one structure is not confirmed: it was looked up by name or label, or the drawing left a doubt.

Assays:
[1] = system: Raw 264.7 murine macrophage; assay: LPS-induced inflammatory cytokine mRNA (qPCR/RT-PCR) in macrophages cultured atop Dex-copolymer films; assay type: cell-based; details: Dex incubated directly with glass slides / self-assembled without the polymer
macrophages = assay: Drug elution from a nanofilm into macrophages (Dex internalization); assay type: cell-based; details: following in vitro cell culture; FIG. 10

C[C@@H]1C[C@H]2[C@@H]3CCC4=CC(=O)C=C[C@]4(C)[C@@]3(F)[C@@H](O)C[C@]2(C)[C@@]1(O)C(=O)CO [Dex, Dexamethasone]
inflammatory suppression / stress attenuation after LPS treatment [1]: absence of inflammatory suppression; also recorded: stress attenuation was precluded | internalization of immobilized dexamethasone into macrophages (macrophages): internalization capabilities
